Primary screen of a compound library

The chains behind the UniProt entries cited, without tags or fusion partners.
UniProt E9BF75, entry or part of it: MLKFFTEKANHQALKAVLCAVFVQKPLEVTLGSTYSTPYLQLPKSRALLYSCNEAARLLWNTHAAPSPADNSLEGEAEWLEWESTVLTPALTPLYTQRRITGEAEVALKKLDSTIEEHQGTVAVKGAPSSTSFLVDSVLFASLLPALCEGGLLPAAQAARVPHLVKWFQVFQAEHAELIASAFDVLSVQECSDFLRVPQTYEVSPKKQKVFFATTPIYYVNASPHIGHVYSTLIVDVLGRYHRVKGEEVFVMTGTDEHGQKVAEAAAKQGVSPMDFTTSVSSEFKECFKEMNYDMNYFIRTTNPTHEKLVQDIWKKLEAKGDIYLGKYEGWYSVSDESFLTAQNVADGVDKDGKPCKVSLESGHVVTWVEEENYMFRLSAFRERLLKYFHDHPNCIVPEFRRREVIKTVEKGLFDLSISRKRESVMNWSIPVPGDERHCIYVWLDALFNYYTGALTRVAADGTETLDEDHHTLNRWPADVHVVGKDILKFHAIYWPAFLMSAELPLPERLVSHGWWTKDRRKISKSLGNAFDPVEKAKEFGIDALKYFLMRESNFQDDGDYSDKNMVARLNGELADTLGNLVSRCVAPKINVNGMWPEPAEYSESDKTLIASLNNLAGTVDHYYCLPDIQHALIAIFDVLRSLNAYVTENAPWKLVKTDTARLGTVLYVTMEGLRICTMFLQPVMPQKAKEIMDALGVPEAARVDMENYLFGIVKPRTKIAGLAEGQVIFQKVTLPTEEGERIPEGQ

Measurements from “University of Dundee, Small-Polar-MMV Screening Library” (2021), ChEMBL document CHEMBL3988442.

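Primary screen of methionyl-tRNA synthetase; the read-out is not stated. Target: Methionyl-tRNA synthetase (putative), Leishmania donovani (UniProt E9BF75). The test concentration is not given. The values are filed as inhibition. About 68,000 compounds were tested under these conditions; 0.035% (about 24) showed 50% or more at least once.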

All values are in %. The controls that fix the scale are not given in the record; negative values are as filed. The compounds are a random part of those screened.

structure	Inhibition
O=C(C(CNCc1ccccc1O)c1ccccc1)N1CCOCC1 (centres unmarked)	12.26
CCc1cccc2c(CC(=O)N(C)CCN(C)C)c(C)[nH]c12	14.53
N#Cc1cccc(N2CC3(CCN(C(=O)c4cccnc4)C3)CC2=O)c1 (centres unmarked)	15.02
CC(=O)N1CCN(c2ccnc(C)n2)CC(COc2ccccc2)C1 (centres unmarked)	14.69
O=C(c1ccc(-n2cnnc2)cc1)N1CCC(Nc2cccnn2)CC1	8.832
Fc1ccc(CN2CCc3ncnc(C4CC4)c3CC2)cc1	12.88
COCC(=O)N1CCc2c(CNS(C)(=O)=O)n[nH]c2C1	3.583
NC(=O)c1cnc2n1CCN(C(=O)c1cccc(Cn3cccn3)c1)C2	13.16
CCOc1ccccc1C(=O)N1CCCC1c1ncc2c(n1)CCNC2 (centres unmarked)	1.748
CC(C)NC(=O)c1nc2c(s1)CCCN2c1ccccc1	2.439
CCCn1nc(-c2nc(COC)no2)ccc1=O	10.89
COCCNC(=O)NCc1cccc(-n2ccnc2)c1	20.41
CCN(Cc1ccc(O)c(C(=O)O)c1)CC1CCOCC1	15.46
COC1CCN(C(=O)c2ccc3ncsc3c2)CC1	9.61
COc1ccccc1OCCN1CCCC(c2noc(C3CC3)n2)C1 (centres unmarked)	12.68
CCN(C1CCS(=O)(=O)C1)S(=O)(=O)c1cccc2cc(C)cnc12 (centres unmarked)	11.02
Cc1ccn(-c2ccccc2NCc2scnc2C)n1	13.59
Cc1cc(-c2cnc(C(C)C)nc2CN(C)C(=O)c2ccccn2)on1	12.9
O=C1CCCN1CCCNCc1cc(O)c2cccc(F)c2n1	1.875
Cc1cc(NC(=O)NCCc2ccc3c(c2)OCCO3)n(C)n1	8.614
Cc1nnn2c1COCC(CNC(=O)c1ccc[nH]1)C2 (centres unmarked)	7.19
Cc1cnn(C2CN(Cc3noc(C4CC4)n3)C2)c1	15.62
CCNC(=O)N1CCc2ccc(NC(=O)NCC3CC3)cc21	15.49
Cc1noc(C)c1CS(=O)(=O)CC(=O)N1c2ccccc2CC1C (centres unmarked)	5.966
CC(C)c1nnc2n1CCN(C(=O)c1ccc(OCC3CC3)nc1)C2	9.424
CSCC(CCO)NC(=O)Nc1ccc(C)cc1C (centres unmarked)	13.91
CC(C)c1cc(Br)ccc1NC(=O)NC(C)(CO)CO	13.36
Cc1cc(C)c(CNC(=O)NC2COc3ccccc3C2)c(=O)[nH]1 (centres unmarked)	14.25
CC(C)S(=O)(=O)NCC(Cc1cccc(F)c1)N1CCNC1=O (centres unmarked)	15.23
Cc1noc(C)c1C(=O)N1CCCC(c2nccn2Cc2cscn2)C1 (centres unmarked)	14.72
CCC(CO)N(Cc1ccsc1)CC1CC1 (centres unmarked)	18.45
CN(Cc1ccccc1)C1COC2(CCN(Cc3nccs3)CC2)C1 (centres unmarked)	13.81
Cc1ccc(Oc2ncccc2CNC2CCCCC2)cn1	2.135
COc1ccccc1OCc1cc(C(=O)N2CCOCC2CO)n[nH]1 (centres unmarked)	17.6
COC(=O)c1cccc2nc([C@H]3CCN(Cc4ccccc4)C3)oc12	6.767
CCCN(c1ccccc1C(=O)O)S(=O)(=O)c1cccc2cccnc12	12.78
Cc1n[nH]c(C2CN(CC(=O)NCc3ccco3)CCO2)n1 (centres unmarked)	6.829
OC1(Cn2ccc3ncccc32)CCN(Cc2cc(F)cc(F)c2)CC1	14.58
C[C@H]1C[C@H]2CN(S(=O)(=O)c3ccc(F)cc3)CC[C@H]2O1	7.283
Cc1nn(C(C)C)c2cn(CC(=O)NC3CCSCC3)nc12	31.02
CCNC(=O)C1CCN(Cc2ccc(C(=O)Nc3nnc(C)s3)cc2)C1 (centres unmarked)	14.6
N#Cc1cccc(S(=O)(=O)NC(=O)COC2CCCC2)c1	6.073
CC(C)Oc1ccc2c(NC(=O)CNC(N)=O)nn(CC(F)(F)F)c2c1	14.98
Cc1cccc(C(=O)N2CCCn3cnc(CN4CCCC4=O)c3C2)n1	0
Cn1cc(CN2CCc3ccc(=O)n(CC4CC4)c3CC2)cn1	11.54
Cc1c(C(=O)NCCC(=O)N2CCOCC2)sc2ccc(F)cc12	14.92
O=C(c1cnc(-c2ccccc2)nc1)N1CCOC2(CCCC2)C1	9.589
Cc1ccc(CN2CCC3(CCN(S(=O)(=O)c4ccccc4)C3)C2)o1 (centres unmarked)	4.444
CC(C)(C)c1nccc(N2CCC(OCCN3CCCCC3)C2)n1 (centres unmarked)	11.72
Cn1cc(N2CCC3(CCN(Cc4nccs4)C3)C2=O)cn1 (centres unmarked)	15.15
Cc1cc(C(=O)Nc2ccc(CN3CCOCC3)cn2)n(C)n1	10.6
Cc1nc(C2(NCc3cc(C#N)ccc3F)CCCCC2)no1	10.28
O=C(NC1CC1)c1cc(C(F)(F)F)cc(C(F)(F)F)n1	9.164
CCS(=O)(=O)N1CCc2c(cccc2NCc2ncc[nH]2)C1	13.31
CN(C)C(=O)CO[C@H]1CN(Cc2ccsc2)[C@@H]2COC[C@H]12	13.66
Cc1cc(C)n(C2CCN(C(=O)CN3C(=O)CSc4ccccc43)C2)n1 (centres unmarked)	7.639

The last 5 entries again:

* Cc1nc(C2(NCc3cc(C#N)ccc3F)CCCCC2)no1 : 10.28%
* O=C(NC1CC1)c1cc(C(F)(F)F)cc(C(F)(F)F)n1 : 9.164%
* CCS(=O)(=O)N1CCc2c(cccc2NCc2ncc[nH]2)C1 : 13.31%
* CN(C)C(=O)CO[C@H]1CN(Cc2ccsc2)[C@@H]2COC[C@H]12 : 13.66%
* Cc1cc(C)n(C2CCN(C(=O)CN3C(=O)CSc4ccccc43)C2)n1 (centres unmarked) : 7.639%